# Measured values: publication PMC10133229
# Protein sequences, listed by entry. Tags and fused reporters are not part of them.
# UniProt P35222: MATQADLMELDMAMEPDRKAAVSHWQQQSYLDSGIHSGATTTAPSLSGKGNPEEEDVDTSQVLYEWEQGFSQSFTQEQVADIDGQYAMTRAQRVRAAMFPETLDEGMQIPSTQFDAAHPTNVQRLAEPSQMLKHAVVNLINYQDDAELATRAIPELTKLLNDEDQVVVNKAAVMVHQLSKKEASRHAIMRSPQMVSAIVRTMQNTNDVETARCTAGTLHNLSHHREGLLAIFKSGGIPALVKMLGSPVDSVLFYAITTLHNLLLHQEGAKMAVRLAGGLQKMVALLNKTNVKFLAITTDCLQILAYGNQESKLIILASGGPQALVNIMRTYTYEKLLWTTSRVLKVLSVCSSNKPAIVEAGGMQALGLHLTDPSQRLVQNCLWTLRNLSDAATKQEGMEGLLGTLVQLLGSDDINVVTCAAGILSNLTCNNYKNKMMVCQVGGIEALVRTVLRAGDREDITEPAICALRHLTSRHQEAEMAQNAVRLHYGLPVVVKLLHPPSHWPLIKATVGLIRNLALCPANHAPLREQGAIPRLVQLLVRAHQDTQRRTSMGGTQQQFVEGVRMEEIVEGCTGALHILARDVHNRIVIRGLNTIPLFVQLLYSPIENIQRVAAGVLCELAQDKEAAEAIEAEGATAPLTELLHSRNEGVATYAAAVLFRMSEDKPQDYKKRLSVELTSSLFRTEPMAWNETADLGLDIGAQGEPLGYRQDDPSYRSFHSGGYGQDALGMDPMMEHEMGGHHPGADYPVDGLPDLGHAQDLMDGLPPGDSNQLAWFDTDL
# Results are given in words; binding and its absence hold for the method and conditions named. In cells and extracts the contact can be indirect. Some binding calls cover weakened binding; strength is not graded here.
# Target: T1, Never in mitosis gene A (NIMA)-related kinase-8 (human (endogenous in MDA-MB-231)) (UniProt Q86SG6)
# T1 sequence: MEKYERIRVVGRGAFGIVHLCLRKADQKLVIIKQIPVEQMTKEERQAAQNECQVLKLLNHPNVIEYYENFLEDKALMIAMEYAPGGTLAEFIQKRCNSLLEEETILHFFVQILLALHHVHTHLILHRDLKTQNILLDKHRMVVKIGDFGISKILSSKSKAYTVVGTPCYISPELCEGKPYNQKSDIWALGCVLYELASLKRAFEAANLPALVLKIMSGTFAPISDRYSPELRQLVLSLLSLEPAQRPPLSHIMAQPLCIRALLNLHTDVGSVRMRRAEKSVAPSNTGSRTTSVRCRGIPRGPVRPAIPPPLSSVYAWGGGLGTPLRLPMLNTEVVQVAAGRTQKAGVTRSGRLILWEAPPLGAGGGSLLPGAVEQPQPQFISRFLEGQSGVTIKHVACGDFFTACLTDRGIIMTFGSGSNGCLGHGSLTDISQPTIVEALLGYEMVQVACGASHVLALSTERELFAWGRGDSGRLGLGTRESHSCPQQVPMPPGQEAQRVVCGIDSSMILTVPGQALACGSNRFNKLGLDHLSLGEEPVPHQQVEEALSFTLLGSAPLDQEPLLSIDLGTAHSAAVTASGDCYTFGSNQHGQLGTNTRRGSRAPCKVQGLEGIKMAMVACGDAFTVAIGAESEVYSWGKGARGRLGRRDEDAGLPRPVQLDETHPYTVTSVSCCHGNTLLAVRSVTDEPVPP
# Assay: co-IP; MDA-MB-231 lysate (immunoprecipitation kit, Abcam; lysis buffer with protease inhibitor) treated with NEK8 antibody overnight at 4 °C, protein A/G sepharose 1 h, washed, eluted; β-catenin detected by western blot
substance,measurement,value
β-catenin (from UniProt P35222 1-781),binding,binds
